No constants are given. Whether binding was seen depends on the method and setting. A result given as binding can be weak or reduced; the word gives no strength. Sequences can lack the tags named with a protein.
Molecular target: T1, GST-KAT8 FL (human) (UniProt Q9H7Z6)
T1 sequence: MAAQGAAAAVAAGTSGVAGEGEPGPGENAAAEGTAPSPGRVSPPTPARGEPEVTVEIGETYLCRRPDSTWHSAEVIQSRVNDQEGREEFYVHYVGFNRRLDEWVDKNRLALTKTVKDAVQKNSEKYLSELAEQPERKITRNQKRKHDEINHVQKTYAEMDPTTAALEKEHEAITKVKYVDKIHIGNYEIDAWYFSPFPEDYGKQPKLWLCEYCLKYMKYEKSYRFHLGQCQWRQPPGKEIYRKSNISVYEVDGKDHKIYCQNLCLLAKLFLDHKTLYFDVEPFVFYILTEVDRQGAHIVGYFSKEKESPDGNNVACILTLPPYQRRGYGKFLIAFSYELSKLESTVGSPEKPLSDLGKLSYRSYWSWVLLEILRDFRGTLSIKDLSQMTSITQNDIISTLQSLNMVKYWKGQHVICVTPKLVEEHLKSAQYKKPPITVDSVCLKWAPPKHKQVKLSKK
Experiment: pull-down; GST pull-down: His-tagged proteins incubated with GST fusion proteins in TEN buffers for 4 h at 4 °C, beads washed three times; Western blotting with anti-GST or anti-His and Coomassie staining; both purified

- binding: binds
Substance: His-GCN5 N-terminus fragment (human) (domain or fragment)

Reference: PMC9970984
